No constants are given. Whether binding was seen depends on the method and setting. Some entries that bind do so weakly or less than the wild type.

Chains of the proteins cited; added tags and fusions are not shown. Residues count along the entry.
UniProt P06213, residues 28-1382: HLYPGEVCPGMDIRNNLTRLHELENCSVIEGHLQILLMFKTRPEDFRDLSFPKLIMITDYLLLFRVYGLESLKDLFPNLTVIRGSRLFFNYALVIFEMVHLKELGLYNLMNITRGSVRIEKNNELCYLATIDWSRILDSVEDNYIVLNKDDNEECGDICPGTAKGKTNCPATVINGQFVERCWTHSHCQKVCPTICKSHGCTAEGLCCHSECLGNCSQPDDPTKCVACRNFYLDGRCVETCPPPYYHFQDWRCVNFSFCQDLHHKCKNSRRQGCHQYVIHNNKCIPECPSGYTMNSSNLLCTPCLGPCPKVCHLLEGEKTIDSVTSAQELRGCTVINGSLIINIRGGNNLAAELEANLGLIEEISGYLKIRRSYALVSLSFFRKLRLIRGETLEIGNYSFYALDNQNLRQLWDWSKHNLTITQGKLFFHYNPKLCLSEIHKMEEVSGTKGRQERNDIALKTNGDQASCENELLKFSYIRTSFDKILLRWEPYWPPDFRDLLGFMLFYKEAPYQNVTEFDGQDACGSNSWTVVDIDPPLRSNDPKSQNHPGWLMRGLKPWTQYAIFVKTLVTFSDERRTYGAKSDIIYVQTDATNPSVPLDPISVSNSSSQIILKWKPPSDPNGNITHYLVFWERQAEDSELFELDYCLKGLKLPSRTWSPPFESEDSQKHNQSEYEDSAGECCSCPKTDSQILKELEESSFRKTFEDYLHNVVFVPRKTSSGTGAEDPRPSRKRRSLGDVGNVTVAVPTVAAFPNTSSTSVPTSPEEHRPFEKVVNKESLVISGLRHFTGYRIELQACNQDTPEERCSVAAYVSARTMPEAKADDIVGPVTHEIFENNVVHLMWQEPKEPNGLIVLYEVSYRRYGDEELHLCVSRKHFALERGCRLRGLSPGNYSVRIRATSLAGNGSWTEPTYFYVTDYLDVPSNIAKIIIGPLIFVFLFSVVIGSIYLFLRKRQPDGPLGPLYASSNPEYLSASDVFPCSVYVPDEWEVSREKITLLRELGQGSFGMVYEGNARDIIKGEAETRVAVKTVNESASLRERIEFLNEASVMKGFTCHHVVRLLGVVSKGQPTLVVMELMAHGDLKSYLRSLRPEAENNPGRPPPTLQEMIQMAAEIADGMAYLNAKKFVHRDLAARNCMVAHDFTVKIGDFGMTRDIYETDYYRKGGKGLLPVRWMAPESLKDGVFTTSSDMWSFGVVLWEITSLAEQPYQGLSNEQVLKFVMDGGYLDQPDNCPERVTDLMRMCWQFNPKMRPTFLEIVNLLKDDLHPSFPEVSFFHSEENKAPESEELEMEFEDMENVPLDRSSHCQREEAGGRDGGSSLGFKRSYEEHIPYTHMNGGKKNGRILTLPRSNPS

The target of the assay is human insulin receptor on isolated human brain capillaries (human) (UniProt P06213). Nature of the assay: radioreceptor assay on isolated human brain capillaries (FIG. 2B).

B1: Version 5 humanized HIRMAb (antibody, human IgG1, V domains shown)
VH: QVQLLESGAELVRPGSSVKISCKASGYTFTNYDIHWVKQRPGQGLEWIGWIYPGDGSTKYNEKFKGKATLTADKSSSTAYMHLSSLTSEKSAVYFCAREWAYWGQGTTVTVSA
VL: DIQMTQSPSSLSASVGERVTITCRASQDIGGNLYWYQQKPGKAPKLLIYATSSLDSGVPSRFSGSGSGTDYTFTISSLQPEDIATYYCLQYSSSPWTFGQGTKVEIKR
notes: also called version 5 HIRMAb; Version 5 humanized 83-14 HIRMAb
In the case of B1, the binding entry is “binds”.

The values above are taken from patent US20050142141A1 (University of California, published 2005).
